# Measurements from the supplement of paper PMC8728848.
# Some of the results follow.
# B1: MUB70 (Lactobacillus reuteri) (protein)
# chain: CVHVQYIDGETDQMLRQDDLDGYTDETIPYSTAEGIKKFEGDGYELFKDNFPAGEKFDNDDTNDQFYTVIF
# Legend:
# Test in all cases: glycan array binding signal (z-score within array); higher = stronger binding
# Conditions in all cases: glycan notation: IUPAC condensed, linker removed
# [1] = target: Gal(b1-3)GlcNAc(b1-2)Man(a1-3)[Gal(b1-3)GlcNAc(b1-2)Man(a1-6)]Man(b1-4)GlcNAc(b1-4)GlcNAc
# How it was run: (§1)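 Arrays were curated from the Consortium for Functional Glycomics database, 3228 in total, and kept only where the protein sequence was available. Binding is expressed as a within-array Z-score. This score was averaged across arrays of the same protein sequence at different concentrations or buffers and across linkers, and negative values can be read as non-binding.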
# [2] = target: Gal(b1-3)GlcNAc(b1-2)Man(a1-3)[Gal(b1-3)GlcNAc(b1-2)Man(a1-6)]Man(b1-4)GlcNAc(b1-4)[Fuc(a1-6)]GlcNAc
# How it was run: as §1
# [3] = target: Gal(b1-3)GlcNAc(b1-2)Man(a1-3)[GlcNAc(b1-4)][Gal(b1-3)GlcNAc(b1-2)Man(a1-6)]Man(b1-4)GlcNAc(b1-4)GlcNAc
# How it was run: as §1
# [4] = target: Gal(b1-3)GlcNAc(b1-2)[Gal(b1-3)GlcNAc(b1-6)]Man(a1-6)[Gal(b1-3)GlcNAc(b1-2)Man(a1-3)]Man(b1-4)GlcNAc(b1-4)GlcNAc
# How it was run: as §1
# [5] = target: Gal(b1-3)GlcNAc(b1-3)Gal(b1-3)GlcNAc
# How it was run: as §1
# [6] = target: Gal(b1-3)GlcNAc(b1-3)Gal(b1-4)Glc
# How it was run: as §1
# [7] = target: Gal(b1-3)GlcNAc(b1-3)Gal(b1-4)GlcNAc
# How it was run: as §1
# [8] = target: Gal(b1-3)GlcNAc(b1-3)Gal(b1-4)GlcNAc(b1-2)Man(a1-3)[Gal(b1-3)GlcNAc(b1-3)Gal(b1-4)GlcNAc(b1-2)Man(a1-6)]Man(b1-4)GlcNAc(b1-4)GlcNAc
# How it was run: as §1
# [9] = target: Gal(b1-3)GlcNAc(b1-3)Gal(b1-4)GlcNAc(b1-2)[Gal(b1-3)GlcNAc(b1-3)Gal(b1-4)GlcNAc(b1-6)]Man(a1-6)[Gal(b1-3)GlcNAc(b1-3)Gal(b1-4)GlcNAc(b1-2)Man(a1-3)]Man(b1-4)GlcNAc(b1-4)[Fuc(a1-6)]GlcNAc
# How it was run: as §1
# [10] = target: Gal(b1-3)GlcNAc(b1-3)Gal(b1-4)GlcNAc(b1-3)Gal(b1-4)GlcNAc(b1-2)[Gal(b1-3)GlcNAc(b1-3)Gal(b1-4)GlcNAc(b1-3)Gal(b1-4)GlcNAc(b1-6)]Man(a1-6)[Gal(b1-3)GlcNAc(b1-3)Gal(b1-4)GlcNAc(b1-3)Gal(b1-4)GlcNAc(b1-2)Man(a1-3)]Man(b1-4)GlcNAc(b1-4)[Fuc(a1-6)]GlcNAc
# How it was run: as §1
# [11] = target: Gal(b1-3)GlcNAc(b1-3)Gal(b1-4)GlcNAc(b1-6)[Gal(b1-3)GlcNAc(b1-3)]Gal(b1-4)Glc
# How it was run: as §1
# [12] = target: Gal(b1-3)GlcNAc(b1-3)Gal(b1-4)[Fuc(a1-3)]GlcNAc
# How it was run: as §1
# [13] = target: Gal(b1-3)GlcNAc(b1-3)Gal(b1-4)[Fuc(a1-3)]GlcNAc(b1-6)[Gal(b1-3)GlcNAc(b1-3)]Gal(b1-4)Glc
# How it was run: as §1
# [14] = target: Gal(b1-3)GlcNAc(b1-3)GalNAc
# How it was run: as §1
# [15] = target: Gal(b1-3)GlcNAc(b1-6)Gal(b1-4)GlcNAc
# How it was run: as §1
# [16] = target: Gal(b1-3)GlcNAc(b1-6)GalNAc
# How it was run: as §1
# [17] = target: Gal(b1-3)GlcNAc(b1-6)[Gal(b1-3)]GalNAc
# How it was run: as §1
# Gal(b1-3)GlcNAc6S = target: Gal(b1-3)GlcNAc6S
# How it was run: as §1
# [18] = target: Gal(b1-3)[Fuc(a1-4)]GlcNAc
# How it was run: as §1
# [19] = target: Gal(b1-3)[Fuc(a1-4)]GlcNAc(b1-2)Man
# How it was run: as §1
# [20] = target: Gal(b1-3)[Fuc(a1-4)]GlcNAc(b1-2)Man(a1-3)[Gal(b1-3)[Fuc(a1-4)]GlcNAc(b1-2)Man(a1-6)]Man(b1-4)GlcNAc(b1-4)[Fuc(a1-6)]GlcNAc
# How it was run: as §1
# [21] = target: Gal(b1-3)[Fuc(a1-4)]GlcNAc(b1-3)Gal(b1-3)[Fuc(a1-4)]GlcNAc
# How it was run: as §1
# [22] = target: Gal(b1-3)[Fuc(a1-4)]GlcNAc(b1-3)Gal(b1-4)[Fuc(a1-3)]GlcNAc
# How it was run: as §1
# [23] = target: Gal(b1-3)[Fuc(a1-4)]GlcNAc(b1-6)GalNAc
# How it was run: as §1
# [24] = target: Gal(b1-3)[GlcNAc(b1-6)]GalNAc
# How it was run: as §1
# [25] = target: Gal(b1-3)[Neu5Ac(a2-6)]GalNAc
# How it was run: as §1
# [26] = target: Gal(b1-3)[Neu5Ac(a2-6)]GlcNAc(b1-4)Gal(b1-4)Glc
# How it was run: as §1
# [27] = target: Gal(b1-3)[Neu5Ac(b2-6)]GalNAc
# How it was run: as §1
# Gal(b1-4)Gal = target: Gal(b1-4)Gal
# How it was run: as §1
# [28] = target: Gal(b1-4)GalNAc(a1-3)[Fuc(a1-2)]Gal(b1-4)GlcNAc
# How it was run: as §1
# [29] = target: Gal(b1-4)GalNAc(b1-3)[Fuc(a1-2)]Gal(b1-4)GlcNAc
# How it was run: as §1
# Gal(b1-4)Glc = target: Gal(b1-4)Glc
# How it was run: as §1
# Gal(b1-4)Glc6S = target: Gal(b1-4)Glc6S
# How it was run: as §1
# Gal(b1-4)GlcNAc = target: Gal(b1-4)GlcNAc
# How it was run: as §1
# [30] = target: Gal(b1-4)GlcNAc(a1-6)Gal(b1-4)GlcNAc
# How it was run: as §1
# Gal(b1-4)GlcNAc(b1-2)Man = target: Gal(b1-4)GlcNAc(b1-2)Man
# How it was run: as §1
# [31] = target: Gal(b1-4)GlcNAc(b1-2)Man(a1-3)Man(b1-4)GlcNAc(b1-4)GlcNAc
# How it was run: as §1
# [32] = target: Gal(b1-4)GlcNAc(b1-2)Man(a1-3)[Gal(b1-4)GlcNAc(b1-2)Man(a1-6)]Man(b1-4)GlcNAc(b1-4)GlcNAc
# How it was run: as §1
# [33] = target: Gal(b1-4)GlcNAc(b1-2)Man(a1-3)[Gal(b1-4)GlcNAc(b1-2)Man(a1-6)]Man(b1-4)GlcNAc(b1-4)[Fuc(a1-6)]GlcNAc
# How it was run: as §1
# [34] = target: Gal(b1-4)GlcNAc(b1-2)Man(a1-3)[Gal(b1-4)GlcNAc(b1-2)Man(a1-6)][Gal(b1-4)GlcNAc(b1-4)]Man(b1-4)GlcNAc(b1-4)[Fuc(a1-6)]GlcNAc
# How it was run: as §1
# [35] = target: Gal(b1-4)GlcNAc(b1-2)Man(a1-3)[Gal(b1-4)GlcNAc(b1-2)Man(a1-6)][GlcNAc(b1-4)]Man(b1-4)GlcNAc(b1-4)[Fuc(a1-6)]GlcNAc
# How it was run: as §1
# [36] = target: Gal(b1-4)GlcNAc(b1-2)Man(a1-3)[GlcNAc(b1-2)Man(a1-6)]Man(b1-4)GlcNAc(b1-4)GlcNAc
# How it was run: as §1
# [37] = target: Gal(b1-4)GlcNAc(b1-2)Man(a1-3)[GlcNAc(b1-4)][Gal(b1-4)GlcNAc(b1-2)Man(a1-6)]Man(b1-4)GlcNAc(b1-4)GlcNAc
# How it was run: as §1
# [38] = target: Gal(b1-4)GlcNAc(b1-2)Man(a1-3)[Man(a1-6)]Man(b1-4)GlcNAc(b1-4)GlcNAc
# How it was run: as §1
# [39] = target: Gal(b1-4)GlcNAc(b1-2)Man(a1-6)Man(b1-4)GlcNAc(b1-4)GlcNAc
# How it was run: as §1
binder,measurement,setting,value
B1,glycan array binding signal (z-score),[1],-0.414
same,glycan array binding signal (z-score),[2],-0.7
same,glycan array binding signal (z-score),[3],0.3
same,glycan array binding signal (z-score),[4],1.76
same,glycan array binding signal (z-score),[5],-0.315
same,glycan array binding signal (z-score),[6],-0.539
same,glycan array binding signal (z-score),[7],-0.441
same,glycan array binding signal (z-score),[8],0.487
same,glycan array binding signal (z-score),[9],0.309
same,glycan array binding signal (z-score),[10],-0.476
same,glycan array binding signal (z-score),[11],0.949
same,glycan array binding signal (z-score),[12],0.53
same,glycan array binding signal (z-score),[13],0.233
same,glycan array binding signal (z-score),[14],-0.051
same,glycan array binding signal (z-score),[15],1.7
same,glycan array binding signal (z-score),[16],-0.196
same,glycan array binding signal (z-score),[17],-0.34
same,glycan array binding signal (z-score),Gal(b1-3)GlcNAc6S,-0.072
same,glycan array binding signal (z-score),[18],0.153
same,glycan array binding signal (z-score),[19],-0.586
same,glycan array binding signal (z-score),[20],-1
same,glycan array binding signal (z-score),[21],-0.379
same,glycan array binding signal (z-score),[22],0.083
same,glycan array binding signal (z-score),[23],-0.459
same,glycan array binding signal (z-score),[24],-0.653
same,glycan array binding signal (z-score),[25],0.618
same,glycan array binding signal (z-score),[26],-0.73
same,glycan array binding signal (z-score),[27],-0.309
same,glycan array binding signal (z-score),Gal(b1-4)Gal,-0.017
same,glycan array binding signal (z-score),[28],-0.017
same,glycan array binding signal (z-score),[29],-0.75
same,glycan array binding signal (z-score),Gal(b1-4)Glc,-0.459
same,glycan array binding signal (z-score),Gal(b1-4)Glc6S,-0.489
same,glycan array binding signal (z-score),Gal(b1-4)GlcNAc,-0.632
same,glycan array binding signal (z-score),[30],-0.067
same,glycan array binding signal (z-score),Gal(b1-4)GlcNAc(b1-2)Man,-0.018
same,glycan array binding signal (z-score),[31],0.416
same,glycan array binding signal (z-score),[32],-0.322
same,glycan array binding signal (z-score),[33],-0.056
same,glycan array binding signal (z-score),[34],-0.001
same,glycan array binding signal (z-score),[35],0.228
same,glycan array binding signal (z-score),[36],-0.774
same,glycan array binding signal (z-score),[37],-0.499
same,glycan array binding signal (z-score),[38],0.1
same,glycan array binding signal (z-score),[39],0.58

# Retrieved one by one from the entries so far (three):
binder,measurement,setting,value
B1,glycan array binding signal (z-score),Gal(b1-3)GlcNAc6S,-0.072
same,glycan array binding signal (z-score),[35],0.228
same,glycan array binding signal (z-score),[13],0.233
